From PubChem BioAssay AID1671190 (National Center for Advancing Translational Sciences (NCATS), 2021)
Screen size: about 580,000 compounds; about 6,100 (1.1%) were called active. Inconclusive means that the source gave no clear call. Such entries were picked first, then a sample of the others. The call rests on the fitted dose curve; in most records, active means well fitted inhibition curve with a large enough effect; inconclusive means small, poorly fitted or top-dose-only effect, or another doubt; inactive means no such curve, though single readings can be large or run the other way. A potency beside an inconclusive call is a rough fit, not a confirmed value.

Chains of the proteins cited; added tags and fusions are not shown. Lines headed by an entry give the natural chain unless they say otherwise; changes in a name come on top.
UniProt P18054: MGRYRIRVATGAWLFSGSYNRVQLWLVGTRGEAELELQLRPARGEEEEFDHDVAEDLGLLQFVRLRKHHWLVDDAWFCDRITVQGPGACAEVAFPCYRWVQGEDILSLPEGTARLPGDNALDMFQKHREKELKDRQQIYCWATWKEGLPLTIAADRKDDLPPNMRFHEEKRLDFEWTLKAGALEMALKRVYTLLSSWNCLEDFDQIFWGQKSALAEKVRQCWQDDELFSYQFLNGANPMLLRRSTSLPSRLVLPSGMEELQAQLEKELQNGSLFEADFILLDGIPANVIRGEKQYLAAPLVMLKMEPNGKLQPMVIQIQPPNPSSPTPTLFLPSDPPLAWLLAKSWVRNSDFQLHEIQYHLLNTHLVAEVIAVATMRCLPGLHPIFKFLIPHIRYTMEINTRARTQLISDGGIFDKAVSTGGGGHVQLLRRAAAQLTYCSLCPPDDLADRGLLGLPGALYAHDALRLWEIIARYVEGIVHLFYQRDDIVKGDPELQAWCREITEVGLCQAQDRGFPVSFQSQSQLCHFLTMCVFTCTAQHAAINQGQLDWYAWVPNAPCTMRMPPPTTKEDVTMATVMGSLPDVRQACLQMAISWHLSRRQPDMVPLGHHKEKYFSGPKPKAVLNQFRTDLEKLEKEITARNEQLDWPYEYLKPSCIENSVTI

The molecules below were run against Polyunsaturated fatty acid lipoxygenase ALOX12 (Homo sapiens) (UniProt P18054) (assay: Primary qHTS assay for inhibitors of human arachidonate 12S-lipoxygenase (ALOX12): Round 2). Conditions: purified 12hLO, xylenol orange hydroperoxide absorbance; activity change, negative = inhibition: at 108 µM (top of the series) unless noted.
How it was run: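 Purified human 12hLO at 150 nM in 25 mM Hepes, 0.01% Triton X-100, pH 7.0, preincubated 15 min at room temperature with compound. Reaction started with 40 uM arachidonic acid, 30 min at room temperature. Hydroperoxide measured by Fe-xylenol orange, 573/405 nm absorbance ratio.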
On the % scale 0 is the no-effect control and ±100 the full control effect; potency means the concentration at half of the fitted maximal effect.

Structure (SMILES)	Potency	activity change, negative = inhibition
CCOc1ccc(NC(=O)CSc2oc(-c3ccc(F)cc3)nc2S(=O)(=O)c2ccc(C)cc2)cc1	inactive	–
O=C(O)c1cc([N+](=O)[O-])c(N2CCCC2)c([N+](=O)[O-])c1	inconclusive: 44.7 µM [inhibitor, full curve, poor fit]	–
O=C1Nc2ccccc2CN(C/C=C/c2ccccc2)C12CCNC2 (stereo not drawn)	inconclusive: 11.2 µM [inhibitor, full curve, poor fit]	–
O=C(c1ccc(F)cc1)N1CCC2(COc3ccncc3[S+](=O)([O-])N2)C1 (stereo not drawn)	inconclusive: 3.16 µM [inhibitor, full curve, poor fit]	–
Cc1noc(C)c1-c1nc(N2CCOCC2)c2ccccc2n1	active: 39.8 µM	–
NC(=O)CC(NC(=O)Cc1ccc(Cl)cc1)c1ccc(NCCN2CCOCC2)c([N+](=O)[O-])c1 (stereo not drawn)	inconclusive: 79.4 µM [inhibitor, partial curve, poor fit]	–
O=C(c1cc(C(F)(F)F)cc(C(F)(F)F)c1)N1CCC2(CC1)CN(c1ccccc1)C2	inconclusive: 35.5 µM [inhibitor, single point]	–
CC1(C)[C@H]2CC[C@@H](CNC(=O)c3ccccc3F)[C@@H]1C2	inactive	–
Cc1nonc1OCCN1CCN(c2ccccc2[N+](=O)[O-])CC1	inactive	–
Cc1ccc(CNC(=O)CSCc2ccccc2)cc1	inconclusive: 44.7 µM [inhibitor, partial curve, poor fit]	–
Cc1c(C(=O)OC(C)C(=O)N(C)Cc2ccccc2)oc2ccccc12 (stereo not drawn)	inconclusive: 112 µM [inhibitor, single point]	–
CCN(CC)C(=O)c1c(C)[nH]c(=S)c(C#N)c1-c1ccco1	inconclusive: 5.62 µM [inhibitor, full curve, poor fit]	–
Cc1ccc(NC(=S)NCc2ccc3c(c2)OCO3)cc1C	inconclusive: 44.7 µM [inhibitor, partial curve, poor fit]	–
Nc1nc(Cl)ncc1[N+](=O)[O-]	inconclusive: 8.91 µM [inhibitor, full curve]	–
Cc1nc2nc(NC(=O)c3ccc(C(C)(C)C)cc3)[nH]n2c(=O)c1Cc1ccccc1	inconclusive: 141 µM [inhibitor, partial curve, poor fit]	–
O=C(CSc1ccccn1)Nc1ccc(F)c([N+](=O)[O-])c1	inactive	–
CN(C)CCNc1nc2sc3c(c2c(=O)n1Cc1ccccc1)CCCCC3	inconclusive: 89.1 µM [inhibitor, partial curve, poor fit]	–
O=C(Nc1ccc(Br)cc1F)c1cc(S(=O)(=O)NC2CCCCC2)ccc1F	inactive	–
O=C1CCN(Cc2c[nH]c3ccccc23)CCCC(C(=O)NCc2ccccc2)CCN1 (stereo not drawn)	inconclusive: 12.6 µM [inhibitor, full curve, poor fit]	–
CCC(=O)Nc1cccc(C2OC(=O)N(Cc3ccc(C)cc3)C2C(=O)NCC2CC2)c1 (stereo not drawn)	inactive	–
c1cc(Cn2ccc3c(N4CCOCC4)nc(-c4cncnc4)cc32)ccn1	–	inconclusive: -31% [inhibitor] [at 176 µM]

Structure (SMILES)	Potency	activity change, negative = inhibition
Cn1c(=O)[nH]c(=O)c2c1nc(N1CCN(Cc3ccccc3F)CC1)n2CCc1ccccc1	inactive	–
O=C1COCC2(CN1Cc1cccc(OC(F)(F)F)c1)CN(C(=O)C1CCOCC1)C2	inconclusive: 1.12 µM [inhibitor, full curve, poor fit]	–
Cc1[nH]c2ccccc2c1/C=N/Nc1ccc([N+](=O)[O-])cc1S(=O)(=O)Nc1ccc(Cl)cc1	inconclusive: 44.7 µM [inhibitor, partial curve, poor fit]	–
Cc1ccc(-n2c(=O)c3c4c(sc3n(Cc3cc(=O)n5ccccc5n3)c2=O)CCC4)cc1C	inconclusive: 0.447 µM [inhibitor, full curve, poor fit]	–
Cc1ccc(CNCC2CCNCC2)s1	inconclusive: 25.1 µM [inhibitor, single point]	–
S=C(NCc1ccccc1)NCc1ccccc1Cl	inconclusive: 44.7 µM [inhibitor, partial curve, poor fit]	–
COc1ccc(OC)c(-c2cc3ccc(O)cc3oc2=O)c1	inactive	–
CC(C)(CN1CCc2ccccc2C1)NS(=O)(=O)c1ccccc1	inconclusive: 1.58 µM [inhibitor, full curve, poor fit]	–
Cc1ccc(S(=O)(=O)C(C#N)c2nc3ccccc3nc2N(C)C)cc1 (stereo not drawn)	inconclusive: 8.91 µM [inhibitor, full curve]	–
O=C(NC1CC1)c1ccccc1OC1CN(Cc2ccc(C(F)(F)F)cc2)C1	inactive	–
O=C(CCSCc1cccc(Cl)c1)N1CCN(c2ccc(Cl)cc2)CC1	inconclusive: 89.1 µM [inhibitor, partial curve, poor fit]	–
N#Cc1cccc(-c2nc(NCCN3CCOCC3)c3ccccc3n2)c1	inconclusive: 39.8 µM [inhibitor, partial curve, poor fit]	–
O=C1C(=O)N(c2ccccc2)C(c2ccccc2[N+](=O)[O-])/C1=C(\O)c1ccccc1 (stereo not drawn)	inconclusive: 2.51 µM [inhibitor, full curve, poor fit]	–
CCCc1cc2c(OC(=O)CC)c(-c3ccc(C(=O)OCC)o3)c(=O)oc2cc1OC	inconclusive: 39.8 µM [inhibitor, partial curve]	–
O=S1(=O)CC/C(=N\Nc2ccccc2)c2ccsc21	active: 35.5 µM	–
O=C(O)c1ccc(CN[C@@H]2CO[C@H](CNC(=O)c3ccccc3)[C@H]2O)cc1	inconclusive: 39.8 µM [inhibitor, full curve]	–
CCC(=O)NC(c1cc(Cl)c2cccnc2c1O)C(C)C (stereo not drawn)	inactive	–
Cc1cc(C)cc(NC(=S)N2CCC(c3nc4ccccc4s3)CC2)c1	inconclusive: 31.6 µM [inhibitor, partial curve, poor fit]	–
COc1cc([N+](=O)[O-])ccc1NC(=S)Nc1cccc(C(=O)O)c1	inconclusive: 126 µM [inhibitor, partial curve, poor fit]	–
CCc1cc2c(COC(=O)c3cccc(S(C)(=O)=O)c3)cc(=O)oc2cc1O	inconclusive: 112 µM [inhibitor, single point]	–
CCCCCc1cc(=O)oc2c(C(CCN3CCCC3)c3cc(OC)c(OC)c(OC)c3)c(OC)cc(OC)c12 (stereo not drawn)	inconclusive: 50.1 µM [inhibitor, partial curve, poor fit]	–

Part of the list above, set out differently.
Structure (SMILES) | Potency | activity change, negative = inhibition
O=C1COCC2(CN1Cc1cccc(OC(F)(F)F)c1)CN(C(=O)C1CCOCC1)C2 | inconclusive: 1.12 µM [inhibitor, full curve, poor fit] | –
Cc1[nH]c2ccccc2c1/C=N/Nc1ccc([N+](=O)[O-])cc1S(=O)(=O)Nc1ccc(Cl)cc1 | inconclusive: 44.7 µM [inhibitor, partial curve, poor fit] | –
Cc1ccc(-n2c(=O)c3c4c(sc3n(Cc3cc(=O)n5ccccc5n3)c2=O)CCC4)cc1C | inconclusive: 0.447 µM [inhibitor, full curve, poor fit] | –
Cc1ccc(CNCC2CCNCC2)s1 | inconclusive: 25.1 µM [inhibitor, single point] | –

The list goes on:

Structure (SMILES)	Potency	activity change, negative = inhibition
CCOC(=O)N1CCN(C(=O)CSc2nc3c(cnn3-c3ccc(C)cc3)c(=O)[nH]2)CC1	inactive	–
CN(Cc1ccccc1)C(=O)c1cccc(NC(=O)C2CCCN(C(=O)OC(C)(C)C)C2)c1 (stereo not drawn)	inactive	–
O=C(NC1CCCCC1)c1cc(Sc2ccc(Cl)cc2)nc2ccccc12	inactive	–
C#CCOCCOCCOCCNc1nc(N2CCN(C(=O)[C@H](CC(N)=O)n3cc([C@@H](N)C(C)C)nn3)CC2)nc(N2CCN(C(=O)[C@H](CC(N)=O)n3cc([C@@H](N)C(C)C)nn3)CC2)n1	inconclusive: 0.251 µM [inhibitor, full curve, poor fit]	–
O=C(O)c1sc2cc(C(F)(F)F)cnc2c1-c1ccccc1	inconclusive: 89.1 µM [inhibitor, partial curve, poor fit]	–
Clc1nc(Cl)nc(N(c2ccccc2)c2ccccc2)n1	inconclusive: 7.94 µM [inhibitor, full curve, poor fit]	–
CCN(CC)c1ccc(/C=N/NC(=O)CNC(=O)C2COc3ccccc3O2)c(O)c1 (stereo not drawn)	inactive	–
COc1ccc(CCNC(=O)CCCCn2c(=O)c3ccccc3n(CC(=O)Nc3c(C)cccc3C)c2=O)cc1OC	inconclusive: 141 µM [inhibitor, partial curve, poor fit]	–
COCCn1c(-c2ccc(OC)cc2)nc2ccccc21	inactive	–
O=C(Nc1cc(F)ccc1F)N1CC(c2nnc(-c3ccncc3)o2)C2(CCOCC2)C1 (stereo not drawn)	inactive	–
Cn1cc(-c2cccc(COc3ccc4c(cnn4CC[S+](C)(=O)[O-])c3)c2)cn1	inconclusive: 126 µM [inhibitor, partial curve, poor fit]	–
Cc1ccc2nc(C)c(C(=O)N3CCCc4ccccc43)cc2c1	inconclusive: 2.51 µM [inhibitor, full curve, poor fit]	–
CCOC(=O)C1=C(C)N(c2ccc(C)c(C)c2)C(=O)/C1=C\c1ccco1	inconclusive: 31.6 µM [inhibitor, partial curve]	–
CCc1ccc(-c2cc(C(=O)NCc3ccco3)c3ccccc3n2)cc1	active: 14.1 µM	–
CSc1ccc(C)c(C(=O)Nc2ccccc2C(C)C)c1	inconclusive: 3.55 µM [inhibitor, full curve, poor fit]	–
O=C(O)CSc1nc2sc3c(c2c(=O)n1-c1ccccc1)CCC3	inactive	–
Cn1c(CNC(=O)c2ccccc2F)nnc1SCC(=O)NCc1ccccc1	inconclusive: 126 µM [inhibitor, single point]	–
CN1Cc2ncnc(N3CCN(Cc4ccccc4)CC3)c2CN(c2ccc(Cl)cc2)C1=O	inconclusive: 50.1 µM [inhibitor, partial curve]	–
CN(C)CCCN(C(=O)c1ccc(C(=O)c2ccccc2)cc1)c1nc2cc3c(cc2s1)OCCO3	inconclusive: 50.1 µM [inhibitor, partial curve, poor fit]	–
O=C(O)c1ccc(Sc2ccccc2C(=O)O)c([N+](=O)[O-])c1	inconclusive: 17.8 µM [inhibitor, full curve]	–
COc1cccc(-c2cc(C(=O)N3CCc4ccccc4C3)no2)c1	inconclusive: 50.1 µM [inhibitor, partial curve, poor fit]	–
